At least one structure is not confirmed: it was looked up by name or label, or the drawing left a doubt.
Legend:
[1] = Stability in bio-relevant media (SGF, Fasted SIF, Fed SIF) at 37° C.; format: physicochemical
Description: (§1) Stability in buffer solutions pH 2 to pH 8 at 25° C., and in bio-relevant media (SGF pH 1.6, Fasted SIF pH 6.5 and Fed SIF pH 5.0) at 37° C., during 24 hours is monitored. The samples are analysed by LC/MS.
SGF (Simulated Gastric Fluid) pH 1.6
Fasted SIF (Simulated Intestinal Fluid) pH 6.5
Fed SIF (Simulated Intestinal Fluid) pH 5.0
(§2) Flow: 0.3 mL/min Column temp.: 25° C. Sample temp.: 25° C. (for stability assay in buffer solutions) • 37° C. (for stability assay in bio-relevant media) Injector volume: 3 μL (without injection program) MS Conditions: Instrument HP MS API-ES, positive ion mode Mass Range: 150-1500 Fragmentor: 100 Gain: 1.0 Treshold: 150 Step size: 0.20 Gas Temperature: 350° C. Drying Gas Flow: 13 L/min Nebulizer Pressure: 35 psig Capillary Voltage Positive 4000 V • Negative 4000 V Sample Preparation: a) For Stability Assay in Buffer Solutions
b) For Stability Assay in Bio-Relevat Media
b1) For SGF Media pH 1.6 Testing:
Compounds are dissolved in SGF media pH 1.6 to give 0.2 mg/mL solution in case of compounds 1 and 2, and to give 0.1 mg/mL solution in case of compound 3. Solutions are then stored in a water bath at 37° C. and removed at the proper time point for LC/MS analysis. Before analysis, pH values of prepared sample solutions are checked and adjusted if necessary.
b2) For Fasted SIF Media pH 6.5 Testing:
(§3) Compounds are dissolved in Fasted SIF media pH 6.5 to give 2 mg/mL solution. Solutions are then dispatched into vials that are stored in a water bath at 37° C. and removed at the proper time point and diluted 10 times with CH3CN for LC/MS analysis. Before analysis, pH values of prepared sample solutions are checked and adjusted if necessary.
b3) For Fed SIF Media pH 5.0 Testing:
as §3, with “Fed” for “Fasted”, “5.0” for “6.5”, “40” for “10”

[2] = Stability in buffer solutions pH 2 to pH 8 at 25° C.; format: physicochemical
Description: as §1
Buffer Solutions and Physiologically Relevant Media Used in Stability Assay:
LC Conditions: Instrument HP1100
Column: Waters XBridge C18, 2.1×50 mm, 3.5 μm
Guard column: Waters XBridge C18, 2.1×10 mm, 3.5 μm
• A) 0.1% HCOOH/H2O • B) 0.1% HCOOH/CH3CN Gradient Timetable: […]
as §2
Compounds are dissolved in CH3CN to produce a 1 mg/mL stock solution. The stock solution is diluted to a concentration of 0.2 mg/mL (1 mL solution in 4 mL buffer) with appropriate buffer to produce a working solution.
Each solution at each pH is then dispatched into vials that are sealed and stored at room temperature in order to be analyzed at the proper time point. Before analysis, pH values of prepared sample solutions are checked and adjusted if neccessary.

## CC[C@H]1OC(=O)[C@H](C)[C@@H](O[C@H]2C[C@@](C)(OC)[C@@H](OC(=O)CN(CC)CC)[C@H](C)O2)[C@H](C)[C@@H](O[C@@H]2O[C@H](C)C[C@H](NC)[C@H]2O)[C@](C)(OC)C[C@@H](C)C(=O)N[C@H](C)[C@@H](O)[C@]1(C)O [Example 1, 3′-N-Demethyl-4″-O-(2-diethylaminoethanoyl)-6-O-methyl-9a-aza-9a-homoerythromycin A]
[1]; Fasted SIF pH 6.5, 37° C., 1.5 h
  Percentage (Area %) of the compound observed in Bio-relevant media: 99.7 Area %
[1]; Fasted SIF pH 6.5, 37° C., 2 h
  Percentage (Area %) of the compound observed in Bio-relevant media: 99.6 Area %
[1]; Fasted SIF pH 6.5, 37° C., 3 h
  Percentage (Area %) of the compound observed in Bio-relevant media: 99.2 Area %
[1]; Fasted SIF pH 6.5, 37° C., 4.3 h
  Percentage (Area %) of the compound observed in Bio-relevant media: 98.8 Area %
[1]; Fasted SIF pH 6.5, 37° C., 20 h
  Percentage (Area %) of the compound observed in Bio-relevant media: 95.4 Area %
[1]; Fasted SIF pH 6.5, 37° C., 24 h
  Percentage (Area %) of the compound observed in Bio-relevant media: 94.7 Area %
[1]; Fasted SIF pH 6.5, 37° C., Initial
  Percentage (Area %) of the compound observed in Bio-relevant media: 100 Area %
[1]; Fed SIF pH 5.0, 37° C., 1 h
  Percentage (Area %) of the compound observed in Bio-relevant media: 99.9 Area %
[1]; Fed SIF pH 5.0, 37° C., 2 h
  Percentage (Area %) of the compound observed in Bio-relevant media: 99.8 Area %
[1]; Fed SIF pH 5.0, 37° C., 4.3 h
  Percentage (Area %) of the compound observed in Bio-relevant media: 98.3 Area %
[1]; Fed SIF pH 5.0, 37° C., 24 h
  Percentage (Area %) of the compound observed in Bio-relevant media: 99.1 Area %
[1]; Fed SIF pH 5.0, 37° C., Initial
  Percentage (Area %) of the compound observed in Bio-relevant media: 100 Area %
[1]; SGF pH 1.6, 37° C., 1.5 h
  Percentage (Area %) of the compound observed in Bio-relevant media: 99.7 Area %
[1]; SGF pH 1.6, 37° C., 2 h
  Percentage (Area %) of the compound observed in Bio-relevant media: 98.8 Area %
[1]; SGF pH 1.6, 37° C., 3 h
  Percentage (Area %) of the compound observed in Bio-relevant media: 98.7 Area %
[1]; SGF pH 1.6, 37° C., 4.3 h
  Percentage (Area %) of the compound observed in Bio-relevant media: 95.6 Area %
[1]; SGF pH 1.6, 37° C., 20 h
  Percentage (Area %) of the compound observed in Bio-relevant media: 95.4 Area %
[1]; SGF pH 1.6, 37° C., 24 h
  Percentage (Area %) of the compound observed in Bio-relevant media: 95.0 Area %
[1]; SGF pH 1.6, 37° C., Initial
  Percentage (Area %) of the compound observed in Bio-relevant media: 100 Area %
[2]; pH 2, 25° C., 2 h
  Percentage (Area %) of the compound observed in buffers: 97.5 Area %
[2]; pH 2, 25° C., 4 h
  Percentage (Area %) of the compound observed in buffers: 96.9 Area %
[2]; pH 2, 25° C., 6 h
  Percentage (Area %) of the compound observed in buffers: 96.6 Area %
[2]; pH 2, 25° C., 8 h
  Percentage (Area %) of the compound observed in buffers: 96.1 Area %
[2]; pH 2, 25° C., 12 h
  Percentage (Area %) of the compound observed in buffers: 96.1 Area %
[2]; pH 2, 25° C., 24 h
  Percentage (Area %) of the compound observed in buffers: 95.9 Area %
[2]; pH 2, 25° C., Initial
  Percentage (Area %) of the compound observed in buffers: 100 Area %
[2]; pH 3, 25° C., 2 h
  Percentage (Area %) of the compound observed in buffers: 100 Area %
[2]; pH 3, 25° C., 4 h
  Percentage (Area %) of the compound observed in buffers: 99.9 Area %
[2]; pH 3, 25° C., 6 h
  Percentage (Area %) of the compound observed in buffers: 99.9 Area %
[2]; pH 3, 25° C., 8 h
  Percentage (Area %) of the compound observed in buffers: 99.6 Area %
[2]; pH 3, 25° C., 12 h
  Percentage (Area %) of the compound observed in buffers: 99.4 Area %
[2]; pH 3, 25° C., 24 h
  Percentage (Area %) of the compound observed in buffers: 99.4 Area %
[2]; pH 3, 25° C., Initial
  Percentage (Area %) of the compound observed in buffers: 100 Area %
[2]; pH 4, 25° C., 2 h
  Percentage (Area %) of the compound observed in buffers: 100 Area %
[2]; pH 4, 25° C., 4 h
  Percentage (Area %) of the compound observed in buffers: 99.9 Area %
[2]; pH 4, 25° C., 6 h
  Percentage (Area %) of the compound observed in buffers: 100 Area %
[2]; pH 4, 25° C., 8 h
  Percentage (Area %) of the compound observed in buffers: 99.8 Area %
[2]; pH 4, 25° C., 12 h
  Percentage (Area %) of the compound observed in buffers: 99.6 Area %
[2]; pH 4, 25° C., 24 h
  Percentage (Area %) of the compound observed in buffers: 99.5 Area %
[2]; pH 4, 25° C., Initial
  Percentage (Area %) of the compound observed in buffers: 100 Area %
[2]; pH 5, 25° C., 2 h
  Percentage (Area %) of the compound observed in buffers: 100 Area %
[2]; pH 5, 25° C., 4 h
  Percentage (Area %) of the compound observed in buffers: 100 Area %
[2]; pH 5, 25° C., 6 h
  Percentage (Area %) of the compound observed in buffers: 100 Area %
[2]; pH 5, 25° C., 8 h
  Percentage (Area %) of the compound observed in buffers: 99.8 Area %
[2]; pH 5, 25° C., 12 h
  Percentage (Area %) of the compound observed in buffers: 99.6 Area %
[2]; pH 5, 25° C., 24 h
  Percentage (Area %) of the compound observed in buffers: 99.1 Area %
[2]; pH 5, 25° C., Initial
  Percentage (Area %) of the compound observed in buffers: 100 Area %
[2]; pH 6, 25° C., 2 h
  Percentage (Area %) of the compound observed in buffers: 100 Area %
[2]; pH 6, 25° C., 4 h
  Percentage (Area %) of the compound observed in buffers: 99.5 Area %
[2]; pH 6, 25° C., 6 h
  Percentage (Area %) of the compound observed in buffers: 99.5 Area %
[2]; pH 6, 25° C., 8 h
  Percentage (Area %) of the compound observed in buffers: 98.7 Area %
[2]; pH 6, 25° C., 12 h
  Percentage (Area %) of the compound observed in buffers: 98.7 Area %
[2]; pH 6, 25° C., 24 h
  Percentage (Area %) of the compound observed in buffers: 98.7 Area %
[2]; pH 6, 25° C., Initial
  Percentage (Area %) of the compound observed in buffers: 100 Area %
[2]; pH 7, 25° C., 2 h
  Percentage (Area %) of the compound observed in buffers: 100 Area %
[2]; pH 7, 25° C., 4 h
  Percentage (Area %) of the compound observed in buffers: 100 Area %
[2]; pH 7, 25° C., 6 h
  Percentage (Area %) of the compound observed in buffers: 99.9 Area %
[2]; pH 7, 25° C., 8 h
  Percentage (Area %) of the compound observed in buffers: 99.8 Area %
[2]; pH 7, 25° C., 12 h
  Percentage (Area %) of the compound observed in buffers: 99.8 Area %
[2]; pH 7, 25° C., 24 h
  Percentage (Area %) of the compound observed in buffers: 99.1 Area %
[2]; pH 7, 25° C., Initial
  Percentage (Area %) of the compound observed in buffers: 100 Area %
[2]; pH 8, 25° C., 2 h
  Percentage (Area %) of the compound observed in buffers: 100 Area %
[2]; pH 8, 25° C., 4 h
  Percentage (Area %) of the compound observed in buffers: 100 Area %
[2]; pH 8, 25° C., 6 h
  Percentage (Area %) of the compound observed in buffers: 99.9 Area %
[2]; pH 8, 25° C., 8 h
  Percentage (Area %) of the compound observed in buffers: 99.5 Area %
[2]; pH 8, 25° C., 12 h
  Percentage (Area %) of the compound observed in buffers: 99 Area %
[2]; pH 8, 25° C., 24 h
  Percentage (Area %) of the compound observed in buffers: 97.1 Area %
[2]; pH 8, 25° C., Initial
  Percentage (Area %) of the compound observed in buffers: 100 Area %
